Results reported in patent publication US20130295118A1 (CELLERANT THERAPEUTICS, published 2013).
Results are given in words; binding and its absence hold for the method and conditions named. Some entries that bind do so weakly or less than the wild type.

B1: human chimeric CLL-1 antibody ChiM26 (antibody, V domains shown)
VH: EVQLQQSGPELVKPGASVKMSCKASGYTFTSYFIHWVKQKPGQGLEWIGFINPYNDGSKYNEKFKGKATLTSDKSSSTAYMELSSLTSEDSAVYYCTRDDGYYGYAMDYWGQGTSVTVSS
VL: DIQMTQSPSSLSASLGERVSLTCRATQELSGYLSWLQQKPDGTIKRLIYAASTLDSGVPKRFSGNRSGSDYSLTISSLESEDFADYYCLQYAIYPYTFGGGTKLEIKR
B2: human chimeric CLL-1 antibody ChiM31 (antibody, V domains shown)
VH: EVQLQQSGPELVKPGASVKMSCKASGYTFTSYVMHWVKQKPGQGLEWIGYINPYNDGTKYNEKFKGKATLTSDTSSSTAYMELNSLTSEDSAVYFCARPIYFDNDYFDYWGQGTTLKVSS
VL: TIVLTQSPASLAVSLGQRATISCRASESVDSYGNSFMHWYQQKPGQPPKLLIYLASNLESGVPARFSGSGSRTDFTLTIDPVEADDAATYYCQQNNYDPWTFGGGTKLEIK
B3: human chimeric CLL-1 antibody ChiG4 (antibody, V domains shown)
VH: EVQLQQSGPELVKPGASMKISCKASGYSFTGYTMNWVKQSHEKNLEWIGPINPYNDGTIYNPNFKGKATLTVDKASSTAYMELLSLTSDDPAVYYCARTDDYDDYTMDYWGQGTSVTVSS
VL: EIQMTQTPSSLSASLGDRVTISCRASHDISNYLNWYQQKPDGTLKLLIYYTSRLHSGVPSRFSGSGSGTDYSLTISNLEQEDIATYFCQQGKTLLWTFGGGTKLEIK
B4: CLL-1 antibody clone M26 (antibody, V domains shown)
VH: B1 VH
VL: B1 VL
notes: Conjugated to saporin in the ADC assays
B5: CLL-1 antibody clone M31 (antibody, IgG2a, V domains shown)
VH: B2 VH
VL: B2 VL
B6: CLL-1 antibody clone G4 (antibody, IgG1, V domains shown)
VH: B3 VH
VL: B3 VL
notes: also called 31.G4; 31G4

Target: Cynomolgus CLL-1 on cynomolgus PBMCs (cynomolgus monkey)
Test: FACS staining of pooled cynomolgus PBMC (three donors), live-gated, populations defined by CD3, CD19, CD14 (granulocytes), CD14 (monocytes), CD89; antibody concentration not given

Binder | binding
B1 | binds
B2 | binds
B3 | binds
B4 | binds
B5 | binds
B6 | binds

Target: Cynomolgus CLL-1 on cynomolgus PBMCs (cynomolgus monkey)
Test: FACS, cynomolgus PBMC populations

Binder | binding
B1 | binds
B2 | binds
B3 | binds
B4 | binds
B5 | binds
B6 | binds
